Data: PMC11773481
Results are given in words; binding and its absence hold for the method and conditions named. For part of these data: In cells and extracts the contact can be indirect. Some binding calls cover weakened binding; strength is not graded here.

Amino acid sequences for entries named in this document (tags omitted). A change or cut given only in a name is not applied to a line headed by its entry. Chains listed by the source or under a name are the forms on record and can include a tag or linker.
UniProt Q86TI2: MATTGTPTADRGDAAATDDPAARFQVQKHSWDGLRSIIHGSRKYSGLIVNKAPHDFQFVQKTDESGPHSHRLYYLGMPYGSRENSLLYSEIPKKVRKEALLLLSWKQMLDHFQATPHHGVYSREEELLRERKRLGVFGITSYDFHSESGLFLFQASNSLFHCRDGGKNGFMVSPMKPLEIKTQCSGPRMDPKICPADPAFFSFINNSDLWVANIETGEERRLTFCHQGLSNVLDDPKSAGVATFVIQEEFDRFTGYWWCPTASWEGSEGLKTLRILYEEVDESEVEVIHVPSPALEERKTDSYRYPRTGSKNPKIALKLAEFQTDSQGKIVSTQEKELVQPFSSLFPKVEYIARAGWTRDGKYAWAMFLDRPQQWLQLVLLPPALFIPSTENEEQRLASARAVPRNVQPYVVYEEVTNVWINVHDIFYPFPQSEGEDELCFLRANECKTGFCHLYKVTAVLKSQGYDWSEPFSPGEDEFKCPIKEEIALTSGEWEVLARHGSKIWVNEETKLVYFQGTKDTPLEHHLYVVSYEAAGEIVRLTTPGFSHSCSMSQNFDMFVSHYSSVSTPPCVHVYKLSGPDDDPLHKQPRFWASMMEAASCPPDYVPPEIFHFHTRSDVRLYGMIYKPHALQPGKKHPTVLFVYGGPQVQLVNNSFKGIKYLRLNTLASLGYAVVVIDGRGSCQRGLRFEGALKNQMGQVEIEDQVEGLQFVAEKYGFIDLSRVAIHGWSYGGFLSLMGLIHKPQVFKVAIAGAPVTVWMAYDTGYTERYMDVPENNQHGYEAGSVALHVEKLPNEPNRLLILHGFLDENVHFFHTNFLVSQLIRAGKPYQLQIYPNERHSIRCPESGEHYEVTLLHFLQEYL
FLAG-tagged DPP9 Motif 1 AAAA mutant (Q86TI2, form named): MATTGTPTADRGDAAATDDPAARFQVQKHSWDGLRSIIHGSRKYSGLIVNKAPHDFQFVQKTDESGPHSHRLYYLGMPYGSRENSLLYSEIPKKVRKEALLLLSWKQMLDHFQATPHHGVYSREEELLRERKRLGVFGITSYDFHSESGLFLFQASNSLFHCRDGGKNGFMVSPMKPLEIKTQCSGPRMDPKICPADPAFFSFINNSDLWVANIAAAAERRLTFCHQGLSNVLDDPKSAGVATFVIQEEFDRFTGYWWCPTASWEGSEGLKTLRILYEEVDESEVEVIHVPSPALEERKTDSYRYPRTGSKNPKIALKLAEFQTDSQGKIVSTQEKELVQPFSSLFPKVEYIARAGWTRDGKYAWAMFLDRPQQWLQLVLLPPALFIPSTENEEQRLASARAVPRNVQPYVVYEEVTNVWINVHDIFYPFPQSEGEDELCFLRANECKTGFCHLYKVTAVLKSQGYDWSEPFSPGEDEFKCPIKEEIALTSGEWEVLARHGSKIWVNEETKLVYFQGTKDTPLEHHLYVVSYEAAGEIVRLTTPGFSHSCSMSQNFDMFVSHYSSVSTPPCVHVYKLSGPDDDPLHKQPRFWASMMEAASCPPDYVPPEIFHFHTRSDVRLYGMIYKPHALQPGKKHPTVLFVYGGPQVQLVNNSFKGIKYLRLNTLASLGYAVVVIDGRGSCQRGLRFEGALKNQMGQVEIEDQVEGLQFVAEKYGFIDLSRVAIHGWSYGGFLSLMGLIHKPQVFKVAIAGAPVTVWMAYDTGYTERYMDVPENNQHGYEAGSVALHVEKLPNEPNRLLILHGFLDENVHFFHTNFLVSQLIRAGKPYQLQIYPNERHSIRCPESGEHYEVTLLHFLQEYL
FLAG-tagged DPP9 Motif 1 EAGA mutant (Q86TI2, form named): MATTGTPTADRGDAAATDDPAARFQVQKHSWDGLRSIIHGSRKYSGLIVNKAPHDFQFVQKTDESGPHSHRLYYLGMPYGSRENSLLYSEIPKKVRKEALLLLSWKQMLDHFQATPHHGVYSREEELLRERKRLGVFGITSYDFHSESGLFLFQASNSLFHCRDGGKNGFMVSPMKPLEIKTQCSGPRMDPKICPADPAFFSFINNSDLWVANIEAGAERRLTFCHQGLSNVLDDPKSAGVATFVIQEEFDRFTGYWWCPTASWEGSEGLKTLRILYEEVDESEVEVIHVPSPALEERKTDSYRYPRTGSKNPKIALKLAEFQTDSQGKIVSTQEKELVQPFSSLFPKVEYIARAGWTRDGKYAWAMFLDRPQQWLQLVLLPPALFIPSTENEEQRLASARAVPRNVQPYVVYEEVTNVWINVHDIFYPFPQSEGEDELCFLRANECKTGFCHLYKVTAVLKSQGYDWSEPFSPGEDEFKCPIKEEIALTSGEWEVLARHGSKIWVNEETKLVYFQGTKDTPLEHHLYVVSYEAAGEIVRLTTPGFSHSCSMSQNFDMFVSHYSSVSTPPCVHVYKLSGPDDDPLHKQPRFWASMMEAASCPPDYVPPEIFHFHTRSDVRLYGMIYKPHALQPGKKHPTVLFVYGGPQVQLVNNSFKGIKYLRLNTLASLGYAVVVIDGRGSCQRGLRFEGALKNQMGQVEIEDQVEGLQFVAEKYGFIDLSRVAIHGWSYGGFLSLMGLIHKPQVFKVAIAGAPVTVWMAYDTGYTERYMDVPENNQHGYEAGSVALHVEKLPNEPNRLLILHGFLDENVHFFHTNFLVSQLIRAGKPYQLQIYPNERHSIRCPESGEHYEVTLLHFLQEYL
FLAG-tagged DPP9 Motif 2 deletion (Q86TI2, form named): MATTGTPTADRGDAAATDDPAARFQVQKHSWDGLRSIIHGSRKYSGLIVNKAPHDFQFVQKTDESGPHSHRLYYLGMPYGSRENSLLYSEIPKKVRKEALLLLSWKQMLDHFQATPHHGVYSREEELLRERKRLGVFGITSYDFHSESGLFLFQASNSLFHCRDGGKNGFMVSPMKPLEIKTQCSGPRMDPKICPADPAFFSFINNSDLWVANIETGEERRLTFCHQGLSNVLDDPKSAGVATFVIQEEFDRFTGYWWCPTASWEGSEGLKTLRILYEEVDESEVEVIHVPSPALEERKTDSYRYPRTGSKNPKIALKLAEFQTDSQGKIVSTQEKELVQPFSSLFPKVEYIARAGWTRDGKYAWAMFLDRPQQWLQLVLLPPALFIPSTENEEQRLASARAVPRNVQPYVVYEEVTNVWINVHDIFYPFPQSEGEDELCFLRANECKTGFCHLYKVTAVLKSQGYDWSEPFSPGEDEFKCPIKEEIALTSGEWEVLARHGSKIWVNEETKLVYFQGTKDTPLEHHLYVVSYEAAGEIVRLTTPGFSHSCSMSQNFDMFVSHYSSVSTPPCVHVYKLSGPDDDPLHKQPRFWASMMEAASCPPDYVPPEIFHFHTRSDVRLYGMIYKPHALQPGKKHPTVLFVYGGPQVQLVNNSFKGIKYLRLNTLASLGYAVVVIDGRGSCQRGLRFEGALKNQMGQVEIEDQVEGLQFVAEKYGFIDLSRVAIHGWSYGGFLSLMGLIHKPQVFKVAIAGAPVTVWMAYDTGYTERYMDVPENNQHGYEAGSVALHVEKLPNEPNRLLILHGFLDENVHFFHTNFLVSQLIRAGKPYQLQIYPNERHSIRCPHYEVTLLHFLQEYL
FLAG-tagged DPP9 Motif 2 EAGA mutant (Q86TI2, form named): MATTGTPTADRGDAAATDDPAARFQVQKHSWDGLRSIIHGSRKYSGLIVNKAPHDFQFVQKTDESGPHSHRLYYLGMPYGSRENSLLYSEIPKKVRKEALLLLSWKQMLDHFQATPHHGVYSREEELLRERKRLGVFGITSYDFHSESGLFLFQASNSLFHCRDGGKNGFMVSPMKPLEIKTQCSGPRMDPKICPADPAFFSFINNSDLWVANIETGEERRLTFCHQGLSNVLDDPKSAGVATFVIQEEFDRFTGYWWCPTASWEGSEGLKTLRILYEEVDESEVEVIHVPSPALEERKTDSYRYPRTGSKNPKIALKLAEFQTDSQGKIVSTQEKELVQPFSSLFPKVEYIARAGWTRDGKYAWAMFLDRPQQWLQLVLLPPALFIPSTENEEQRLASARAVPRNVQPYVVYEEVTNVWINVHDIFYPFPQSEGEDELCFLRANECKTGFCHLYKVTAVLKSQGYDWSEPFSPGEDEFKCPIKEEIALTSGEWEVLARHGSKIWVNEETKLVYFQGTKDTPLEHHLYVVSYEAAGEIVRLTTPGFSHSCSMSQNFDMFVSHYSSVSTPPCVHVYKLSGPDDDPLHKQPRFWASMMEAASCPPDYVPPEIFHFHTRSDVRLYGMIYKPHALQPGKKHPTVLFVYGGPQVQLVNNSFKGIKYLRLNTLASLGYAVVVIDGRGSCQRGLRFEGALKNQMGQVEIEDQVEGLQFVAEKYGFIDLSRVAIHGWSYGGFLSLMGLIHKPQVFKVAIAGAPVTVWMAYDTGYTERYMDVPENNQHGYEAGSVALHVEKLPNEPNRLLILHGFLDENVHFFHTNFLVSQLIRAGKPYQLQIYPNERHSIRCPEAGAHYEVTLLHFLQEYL
FLAG-tagged DPP9 Motif 1 deletion (Q86TI2, form named): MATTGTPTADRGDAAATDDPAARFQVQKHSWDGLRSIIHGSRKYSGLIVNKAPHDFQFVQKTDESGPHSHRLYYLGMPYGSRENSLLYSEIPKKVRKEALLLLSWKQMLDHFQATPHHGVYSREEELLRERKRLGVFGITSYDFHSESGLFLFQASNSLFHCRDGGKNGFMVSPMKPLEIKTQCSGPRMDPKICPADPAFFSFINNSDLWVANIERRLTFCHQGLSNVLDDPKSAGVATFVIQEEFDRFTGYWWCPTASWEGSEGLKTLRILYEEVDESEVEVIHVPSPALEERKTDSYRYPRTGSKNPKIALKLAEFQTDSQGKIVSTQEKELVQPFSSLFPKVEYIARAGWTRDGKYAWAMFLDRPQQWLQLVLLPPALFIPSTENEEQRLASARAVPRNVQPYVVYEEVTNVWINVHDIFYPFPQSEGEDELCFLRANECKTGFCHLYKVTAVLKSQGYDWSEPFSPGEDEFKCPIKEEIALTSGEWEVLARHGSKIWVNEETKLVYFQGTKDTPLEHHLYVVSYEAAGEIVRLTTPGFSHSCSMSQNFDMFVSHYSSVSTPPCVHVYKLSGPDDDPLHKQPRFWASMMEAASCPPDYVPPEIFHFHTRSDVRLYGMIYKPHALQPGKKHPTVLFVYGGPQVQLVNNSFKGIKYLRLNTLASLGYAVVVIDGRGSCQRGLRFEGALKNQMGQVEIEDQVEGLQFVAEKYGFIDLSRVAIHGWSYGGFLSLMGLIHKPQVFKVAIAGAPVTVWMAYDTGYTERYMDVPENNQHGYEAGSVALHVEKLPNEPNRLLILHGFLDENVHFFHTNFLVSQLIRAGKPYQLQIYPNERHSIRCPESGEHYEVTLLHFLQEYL
UniProt Q9Y2G2: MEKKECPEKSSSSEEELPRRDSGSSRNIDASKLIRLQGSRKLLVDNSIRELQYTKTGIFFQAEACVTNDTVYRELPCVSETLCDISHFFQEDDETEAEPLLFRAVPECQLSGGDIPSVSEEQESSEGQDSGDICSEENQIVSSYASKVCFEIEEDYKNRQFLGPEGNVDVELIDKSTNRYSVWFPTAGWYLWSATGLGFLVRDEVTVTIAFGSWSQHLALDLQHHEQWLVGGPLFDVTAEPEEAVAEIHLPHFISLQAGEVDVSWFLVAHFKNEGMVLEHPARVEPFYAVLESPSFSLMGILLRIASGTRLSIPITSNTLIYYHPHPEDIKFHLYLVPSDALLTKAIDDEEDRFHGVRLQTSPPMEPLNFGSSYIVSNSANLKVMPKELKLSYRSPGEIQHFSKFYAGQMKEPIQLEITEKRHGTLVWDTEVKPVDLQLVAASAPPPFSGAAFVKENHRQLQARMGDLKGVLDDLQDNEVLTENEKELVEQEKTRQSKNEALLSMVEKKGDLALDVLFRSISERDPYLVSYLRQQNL
UniProt Q14145: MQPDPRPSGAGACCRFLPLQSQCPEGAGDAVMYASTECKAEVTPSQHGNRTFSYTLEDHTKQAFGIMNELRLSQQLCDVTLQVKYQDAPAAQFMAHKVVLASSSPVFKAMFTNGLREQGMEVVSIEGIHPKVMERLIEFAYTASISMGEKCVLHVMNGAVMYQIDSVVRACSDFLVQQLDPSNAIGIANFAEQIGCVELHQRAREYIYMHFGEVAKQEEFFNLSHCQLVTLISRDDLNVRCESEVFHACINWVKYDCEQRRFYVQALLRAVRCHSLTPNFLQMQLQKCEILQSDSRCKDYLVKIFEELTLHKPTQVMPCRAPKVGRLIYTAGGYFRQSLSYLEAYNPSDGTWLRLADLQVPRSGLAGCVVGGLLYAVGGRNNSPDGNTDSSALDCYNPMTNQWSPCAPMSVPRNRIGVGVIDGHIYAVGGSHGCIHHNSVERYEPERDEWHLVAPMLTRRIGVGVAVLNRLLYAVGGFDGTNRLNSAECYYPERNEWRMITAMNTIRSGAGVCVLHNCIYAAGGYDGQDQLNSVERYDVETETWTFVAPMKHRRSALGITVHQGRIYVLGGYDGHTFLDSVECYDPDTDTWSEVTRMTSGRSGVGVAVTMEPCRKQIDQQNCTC

Columns and labels:
[1] = biological target: FLAG-tagged DPP9 Motif 1 AAAA mutant (UniProt Q86TI2); assay: native gel or EMSA; Blue Native-PAGE (4 to 16% NativePage, 0.25% G-250) of anti-FLAG agarose purified DPP9 variants from DPP8/9−/− HEK 293T cells, immunoblot; both purified
FLAG-tagged CARD8 = FLAG-tagged CARD8 (UniProt Q9Y2G2); assay: co-IP; proteins transiently expressed in DPP8/9−/− HEK 293T cells; clarified lysates on anti-FLAG M2 agarose 1 h at 4 °C, PBS washes, 3X-FLAG peptide elution, immunoblot; VbP (10 μΜ) on cells or DTT (10 mM) on beads had no effect
[2] = biological target: FLAG-tagged DPP9 Motif 1 EAGA mutant (UniProt Q86TI2); assay: native gel or EMSA; Blue Native-PAGE (4 to 16% NativePage, 0.25% G-250) of anti-FLAG agarose purified DPP9 variants from DPP8/9−/− HEK 293T cells, immunoblot; both purified
[3] = biological target: FLAG-tagged DPP9 Motif 2 deletion (UniProt Q86TI2); assay: as above
DPP9 C844M = DPP9 C844M (UniProt Q86TI2); assay: co-IP; proteins transiently expressed in DPP8/9−/− HEK 293T cells; clarified lysates on anti-FLAG M2 agarose 1 h at 4 °C, PBS washes, 3X-FLAG peptide elution, immunoblot; VbP (10 μΜ) on cells or DTT (10 mM) on beads had no effect
DPP9 C844I = DPP9 C844I (UniProt Q86TI2); assay: as above
DPP9 C844G = DPP9 C844G (UniProt Q86TI2); assay: as above
DPP9 C844A = DPP9 C844A (UniProt Q86TI2); assay: as above
DPP9 C844R = DPP9 C844R (UniProt Q86TI2); assay: as above
DPP9 C844Q = DPP9 C844Q (UniProt Q86TI2); assay: as above
[4] = biological target: FLAG-tagged DPP9 Motif 2 deletion (UniProt Q86TI2); assay: as above
[5] = biological target: FLAG-tagged DPP9 Motif 2 EAGA mutant (UniProt Q86TI2); assay: as above
FLAG-tagged DPP8 = FLAG-tagged DPP8 (UniProt Q6V1X1); assay: as above
[6] = biological target: FLAG-tagged DPP9 Motif 1 EAGA mutant (UniProt Q86TI2); assay: as above
[7] = biological target: FLAG-tagged DPP9 Motif 1 deletion (UniProt Q86TI2); assay: as above
[8] = biological target: FLAG-tagged DPP9 Motif 1 AAAA mutant (UniProt Q86TI2); assay: as above
[9] = biological target: FLAG-tagged DPP9 Motif 2 AAAA mutant (UniProt Q86TI2); assay: as above
[10] = biological target: FLAG-tagged DPP9 Motif 1 deletion (UniProt Q86TI2); assay: native gel or EMSA; Blue Native-PAGE (4 to 16% NativePage, 0.25% G-250) of anti-FLAG agarose purified DPP9 variants from DPP8/9−/− HEK 293T cells, immunoblot; both purified

FLAG-tagged DPP9 Motif 1 AAAA mutant (from UniProt Q86TI2 1-863) (enzyme)
binding [1]: no binding

V5-tagged DPP9 (from UniProt Q86TI2 1-863) (enzyme)
binding (FLAG-tagged CARD8): binds

FLAG-tagged DPP9 Motif 1 EAGA mutant (from UniProt Q86TI2 1-863) (enzyme)
binding [2]: no binding

FLAG-tagged DPP9 Motif 2 deletion (from UniProt Q86TI2 1-863) (enzyme)
binding [3]: no binding

KEAP1 as used in Figure 5E–G (from UniProt Q14145 1-624)
binding (DPP9 C844M): no binding | binding (DPP9 C844I): no binding | binding (DPP9 C844G): no binding | binding (DPP9 C844A): no binding | binding (DPP9 C844R): no binding | binding (DPP9 C844Q): no binding

endogenous KEAP1 (from UniProt Q14145 1-624)
binding [4]: no binding | binding [5]: no binding | binding (FLAG-tagged DPP8): no binding | binding [6]: binds | binding [7]: binds | binding [8]: binds | binding [9]: no binding

FLAG-tagged DPP9 Motif 1 deletion (from UniProt Q86TI2 1-863) (enzyme)
binding [10]: no binding
